2 molecules from PMC4100928, “Evolutionary Divergence in the Catalytic Activity of the CAM-1, ROR1 and ROR2 Kinase Domains” (PLoS ONE, 2014) can be followed below.

The chains behind the UniProt entries cited, without tags or fusion partners. Residues count along the entry.
UniProt Q01973, residues 428-937: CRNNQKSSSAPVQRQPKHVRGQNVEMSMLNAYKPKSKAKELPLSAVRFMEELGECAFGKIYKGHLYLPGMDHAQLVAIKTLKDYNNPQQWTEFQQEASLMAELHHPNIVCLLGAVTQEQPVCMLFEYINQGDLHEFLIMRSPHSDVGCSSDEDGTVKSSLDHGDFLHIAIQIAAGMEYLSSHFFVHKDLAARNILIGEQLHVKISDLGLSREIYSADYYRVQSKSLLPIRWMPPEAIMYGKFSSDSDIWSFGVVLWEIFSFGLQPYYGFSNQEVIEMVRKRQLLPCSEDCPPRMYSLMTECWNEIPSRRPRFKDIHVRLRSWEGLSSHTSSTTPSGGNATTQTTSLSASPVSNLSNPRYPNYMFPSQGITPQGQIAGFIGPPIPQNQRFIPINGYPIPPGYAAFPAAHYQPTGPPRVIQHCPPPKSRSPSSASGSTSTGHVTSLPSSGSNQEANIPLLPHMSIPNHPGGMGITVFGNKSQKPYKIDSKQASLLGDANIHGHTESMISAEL

Experiment [1] deals with ROR1 intracellular domain (ICD), wild type (human) (UniProt Q01973). Nature of the experiment: SEC-MALS; printed as MALLS; theoretical against experimental molecular weight of the wild type ICDs; conditions not given; both purified. Background: SEC sorts molecules by how far they enter the pores of the column.
Experiment [2] concerns the target ROR2 intracellular domain (ICD), wild type (human) (UniProt Q01974). The description is as above.

Results are given in words; binding and its absence hold for the method and conditions named.

Take “ROR1 intracellular domain (ICD), wild type (from UniProt Q01973 428-937) (domain or fragment)”: in experiment [1], the binding result was “no binding”.

B1: ROR2 intracellular domain (ICD), wild type (domain or fragment, UniProt Q01974 428-943)
chain: CRNKQKASASTPQRRQLMASPSQDMEMPLINQHKQAKLKEISLSAVRFMEELGEDRFGKVYKGHLFGPAPGEQTQAVAIKTLKDKAEGPLREEFRHEAMLRARLQHPNVVCLLGVVTKDQPLSMIFSYCSHGDLHEFLVMRSPHSDVGSTDDDRTVKSALEPPDFVHLVAQIAAGMEYLSSHHVVHKDLATRNVLVYDKLNVKISDLGLFREVYAADYYKLLGNSLLPIRWMAPEAIMYGKFSIDSDIWSYGVVLWEVFSYGLQPYCGYSNQDVVEMIRNRQVLPCPDDCPAWVYALMIECWNEFPSRRPRFKDIHSRLRAWGNLSNYNSSAQTSGASNTTQTSSLSTSPVSNVSNARYVGPKQKAPPFPQPQFIPMKGQIRPMVPPPQLYVPVNGYQPVPAYGAYLPNFYPVQIPMQMAPQQVPPQMVPKPSSHHSGSGSTSTGYVTTAPSNTSMADRAALLSEGADDTQNAPEDGAQSTVQEAEEEEEGSVPETELLGDCDTLQVDEAQVQLEA
Regarding B1, in experiment [2], the binding entry is listed as “no binding”.
